Measurements: PubChem BioAssay AID504444 (National Center for Advancing Translational Sciences (NCATS), 2011)
Hit rate of the full screen: of about 360,000 compounds, about 7,500 (2.1%) were called active. The inconclusive results got no clear call from the source; some entries with a clear call stand among them for comparison. Calls come from the whole dose curve; as a rule, active = well fitted inhibition curve with a large enough effect; inconclusive = small, poorly fitted or top-dose-only effect, or effect the other way; inactive = flat fitted curve, though single readings scatter. Where the call is inconclusive, the potency comes from a doubtful curve fit.

Assay: Nrf2 qHTS screen for inhibitors; note: nearly all actives have a fitted effect of over 60% in size
Settings: A549 ARE-Fluc reporter, luciferase luminescence, 18-24 h; activity change, negative = inhibition: at 46 µM (top of the series)
Summary of the method: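 Concentration-response testing used A549 ARE_Fluc cells at 5000 cells/well. Following an 18-24 h compound incubation, viability was read by fluorescence (Ex 405/Em 525) and luciferase output by luminescence.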
% is set by controls: 0 for no effect and ±100 for the full control effect; potency is the fitted concentration of half-maximal effect.

SMILES	activity change, negative = inhibition	Potency
CCOC(=O)c1c(-c2ccc(Br)cc2)csc1NC(=O)c1ccc(C(C)(C)C)cc1	inactive: 8.22%	
CC(C)CCOc1cccc(OCC(=O)N(C)C2CCS(=O)(=O)C2)c1 (stereo not drawn)		inconclusive: 16.4 µM [falling, partial curve, poor fit]
O=C(O)c1cccc(-n2cccc2/C=C2/NC(=O)N(c3ccc(Cl)cc3)C2=O)c1		inconclusive: 20.6 µM [activator, single point]
CC(C)(Oc1ccc(Cl)cc1)C(=O)N1CCN(C(=O)c2ccco2)CC1	inactive: 23.1%	
O=C(NC(=S)NCCN1CCOCC1)c1ccccc1Br	inactive: -2.53%	
CCN(C(=O)COC(=O)/C=C/c1c(C)nn(Cc2ccc(C)cc2)c1C)C1CCS(=O)(=O)C1 (stereo not drawn)		inconclusive: 18.4 µM [falling, partial curve, poor fit]
Cc1ccc(OCCOc2cccc(Br)c2)c([N+](=O)[O-])n1		inconclusive: 13 µM [activator, partial curve, poor fit]
CCOc1ccc(NC(=S)Nc2cccc3cnccc23)cc1		inconclusive: 18.4 µM [falling, partial curve, poor fit]
Cc1nc2c(-c3ccccc3)c(C)[nH]n2c(=O)c1Cc1ccc(Br)cc1		active: 8.2 µM
O=C(NCc1ccc2c(c1)OCO2)c1cccc(S(=O)(=O)N2CCCC2)c1	inactive: -1.75%	
CC(=O)n1cc([C@H]2C=C(C(=O)N3CCN(Cc4ccccc4)CC3)O[C@@H](OCCCCO)C2)c2ccccc21	inactive: -19.5%	
O=C(COC(=O)CNS(=O)(=O)c1ccc(Br)cc1Cl)NC1CCCC1		inconclusive: 29.1 µM [activator, single point]
CCOc1ccc(NC(c2ccccn2)c2oc(CO)cc(=O)c2O)cc1 (stereo not drawn)		inconclusive: 14.6 µM [activator, partial curve]
Cc1c(C(=O)c2ccccc2)c2ccccn2c1CCc1ccccn1		inconclusive: 20.6 µM [falling, partial curve, poor fit]
Cc1ccc(S(=O)(=O)/N=C(/NC(=S)Nc2cccc(C)c2)c2ccccc2)cc1		inconclusive: 18.4 µM [activator, partial curve, poor fit]
O=C(CC1C(=O)NCCN1Cc1ccc(-c2ccccc2)cc1)NCCOc1cccnc1 (stereo not drawn)		inconclusive: 23.1 µM [falling, single point]
COC(=O)c1c(C)[nH]c(C=O)c1-c1ccccc1		inconclusive: 29.1 µM [activator, single point]
CCOc1ccc2nc(NC(=O)CN3CCN(c4ccccn4)CC3)sc2c1		inconclusive: 29.1 µM [falling, single point]
CCOC(=O)C1CCCN(S(=O)(=O)c2cccc3cccnc23)C1 (stereo not drawn)		inconclusive: 32.6 µM [activator, partial curve, poor fit]
CCC(=O)Nc1ccc(C)cc1-c1nc2ccccc2n(CC(=O)c2ccc(C)cc2)c1=O	inactive: 15.1%	
CCOc1cc(/C=C2\CN(C)C/C(=C\c3ccc(O)c(OCC)c3)C2=O)ccc1O		active: 20.6 µM
Cc1ccc(Nc2nc(-c3sc(N)nc3C)cs2)cc1		inconclusive: 23.1 µM [activator, partial curve, poor fit]

As a short view, 12 of the compounds above.
SMILES	activity change, negative = inhibition	Potency
O=C(NC(=S)NCCN1CCOCC1)c1ccccc1Br	inactive: -2.53%	
CCN(C(=O)COC(=O)/C=C/c1c(C)nn(Cc2ccc(C)cc2)c1C)C1CCS(=O)(=O)C1 (stereo not drawn)		inconclusive: 18.4 µM [falling, partial curve, poor fit]
Cc1ccc(OCCOc2cccc(Br)c2)c([N+](=O)[O-])n1		inconclusive: 13 µM [activator, partial curve, poor fit]
CCOc1ccc(NC(=S)Nc2cccc3cnccc23)cc1		inconclusive: 18.4 µM [falling, partial curve, poor fit]
Cc1nc2c(-c3ccccc3)c(C)[nH]n2c(=O)c1Cc1ccc(Br)cc1		active: 8.2 µM
O=C(NCc1ccc2c(c1)OCO2)c1cccc(S(=O)(=O)N2CCCC2)c1	inactive: -1.75%	
CC(=O)n1cc([C@H]2C=C(C(=O)N3CCN(Cc4ccccc4)CC3)O[C@@H](OCCCCO)C2)c2ccccc21	inactive: -19.5%	
O=C(COC(=O)CNS(=O)(=O)c1ccc(Br)cc1Cl)NC1CCCC1		inconclusive: 29.1 µM [activator, single point]
CCOc1ccc(NC(c2ccccn2)c2oc(CO)cc(=O)c2O)cc1 (stereo not drawn)		inconclusive: 14.6 µM [activator, partial curve]
Cc1c(C(=O)c2ccccc2)c2ccccn2c1CCc1ccccn1		inconclusive: 20.6 µM [falling, partial curve, poor fit]
Cc1ccc(S(=O)(=O)/N=C(/NC(=S)Nc2cccc(C)c2)c2ccccc2)cc1		inconclusive: 18.4 µM [activator, partial curve, poor fit]
O=C(CC1C(=O)NCCN1Cc1ccc(-c2ccccc2)cc1)NCCOc1cccnc1 (stereo not drawn)		inconclusive: 23.1 µM [falling, single point]

(next part)

SMILES	activity change, negative = inhibition	Potency
CC(C)(C)OC(=O)N1CCC(c2c(C(=O)NCc3ccco3)cnn2-c2ccc(F)cc2F)CC1		inconclusive: 7.31 µM [activator, single point]
Cc1nn(C)c(C)c1Nc1ccc(N2C(=O)C3C4C=CC(C4)C3C2=O)cc1[N+](=O)[O-] (stereo not drawn)	inactive: -3.37%	
CC(C)(C)CN1CCN(CC#Cc2ccccc2)CC1CCO (stereo not drawn)		inconclusive: 0.82 µM [activator, full curve, poor fit]
Cc1cc(C)c(S(=O)(=O)N2CCCC(C(=O)NCc3cccnc3)C2)c(C)c1 (stereo not drawn)		inconclusive: 25.9 µM [falling, single point]
Cc1noc2ncnc(N3CCCC(C(=O)Nc4cc(F)ccc4F)C3)c12 (stereo not drawn)		inconclusive: 11.6 µM [falling, partial curve]
CCCC(=O)Nc1ccc(C(=O)Nc2cc(C(F)(F)F)ccc2Cl)cc1		active: 10.3 µM
C=CCN1C(=O)/C(=C2/Sc3ccccc3N2CC)SC1=S	inactive: -21.3%	
COc1ccc(S(=O)(=O)N2CCCCCC2)cc1NC(=O)CN1C(=O)NC(C)(c2ccccc2)C1=O (stereo not drawn)		inconclusive: 25.9 µM [falling, partial curve, poor fit]
Cc1ccc(N2C(=O)C3C4C=CC(CNC(=S)N5CCN(c6cccc(C)c6)C(C)C5)(O4)C3C2=O)cc1 (stereo not drawn)	inactive: -15.9%	
CC1CCCN(c2nc3ccccc3nc2C(C#N)S(=O)(=O)c2ccccc2)C1 (stereo not drawn)		inconclusive: 23.1 µM [falling, single point]
CCOc1ccc(S(=O)(=O)NCc2cccnc2)cc1C(C)C	inactive: -9.78%	
CC1CCc2onc(C(=O)N3CCN(c4ccc(Cl)cc4)CC3)c2C1 (stereo not drawn)		active: 20.6 µM
Cc1nc(NCCNC(=O)c2ccco2)c2c(C)c(C)sc2n1		inconclusive: 0.231 µM [falling, full curve, poor fit]
O=C(NC(=S)N1CCN(Cc2ccc3c(c2)OCO3)CC1)c1cccc(Br)c1		inconclusive: 14.6 µM [falling, single point]
O=[N+]([O-])c1cccc(/C(=N/N=C/c2ccccc2Br)C23CN4CN(CN(C4)C2)C3)c1		inconclusive: 32.6 µM [activator, single point]
O=C(CNc1ccccc1F)Nc1cccc(S(=O)(=O)N2CCCCC2)c1		inconclusive: 25.9 µM [falling, single point]
CCOc1ccc(C(C)=O)cc1COc1ccc(C)nc1[N+](=O)[O-]	inactive: -2.64%	
COC(=O)c1ccc(C(C(=O)NC2CCCCC2)N(Cc2ccc(F)cc2)C(=O)Cc2cccs2)cc1 (stereo not drawn)		inconclusive: 32.6 µM [falling, single point]
COc1ccc(S(=O)(=O)Nc2cc(Cl)ccc2OC)cc1		inconclusive: 29.1 µM [activator, single point]
NC(=O)c1ccccc1N=Cc1ccccn1	inactive: -13.5%	
Cc1ccc(S(=O)(=O)c2nnn3c2nc(N2CCN(c4ccccn4)CC2)c2ccccc23)cc1		inconclusive: 1.64 µM [falling, partial curve, poor fit]
